# In publication PMC2291454:
# Protein sequences, listed by entry. Tags and fused reporters are not part of them. Lines headed by an entry give the natural chain unless they say otherwise; changes in a name come on top. Chains listed by the source or under a name are the forms on record and can include a tag or linker.
# UniProt Q92574: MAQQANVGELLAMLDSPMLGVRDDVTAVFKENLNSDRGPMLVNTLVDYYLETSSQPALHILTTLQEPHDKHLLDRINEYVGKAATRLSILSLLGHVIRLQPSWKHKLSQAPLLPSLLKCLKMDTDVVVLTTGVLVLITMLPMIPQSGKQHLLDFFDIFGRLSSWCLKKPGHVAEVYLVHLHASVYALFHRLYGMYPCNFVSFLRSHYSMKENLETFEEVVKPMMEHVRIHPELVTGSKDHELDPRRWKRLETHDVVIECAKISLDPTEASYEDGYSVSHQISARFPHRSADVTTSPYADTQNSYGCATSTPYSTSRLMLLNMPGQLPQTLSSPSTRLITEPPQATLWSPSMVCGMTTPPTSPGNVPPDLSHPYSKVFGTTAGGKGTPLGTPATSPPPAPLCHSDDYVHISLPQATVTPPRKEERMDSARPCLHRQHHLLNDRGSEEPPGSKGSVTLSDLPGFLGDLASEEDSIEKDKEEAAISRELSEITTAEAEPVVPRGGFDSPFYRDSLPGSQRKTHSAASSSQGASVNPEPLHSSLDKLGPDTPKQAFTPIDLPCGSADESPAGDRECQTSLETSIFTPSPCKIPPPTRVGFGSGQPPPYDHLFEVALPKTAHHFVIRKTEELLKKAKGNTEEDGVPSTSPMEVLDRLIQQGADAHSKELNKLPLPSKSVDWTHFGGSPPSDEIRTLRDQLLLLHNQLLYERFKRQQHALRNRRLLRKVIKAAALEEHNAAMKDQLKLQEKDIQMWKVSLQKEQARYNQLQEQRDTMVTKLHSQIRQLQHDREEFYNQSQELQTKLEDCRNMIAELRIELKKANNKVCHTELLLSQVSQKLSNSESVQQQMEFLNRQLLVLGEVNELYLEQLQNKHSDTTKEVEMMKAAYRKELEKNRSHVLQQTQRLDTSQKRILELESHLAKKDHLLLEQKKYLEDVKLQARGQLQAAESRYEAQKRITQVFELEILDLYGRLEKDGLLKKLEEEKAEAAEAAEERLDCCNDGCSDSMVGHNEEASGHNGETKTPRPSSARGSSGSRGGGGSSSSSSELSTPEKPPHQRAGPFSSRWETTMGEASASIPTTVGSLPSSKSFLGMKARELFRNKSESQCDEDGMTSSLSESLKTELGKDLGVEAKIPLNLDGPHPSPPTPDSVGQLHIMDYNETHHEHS
# TSC2 I820del variant (P49815-4, form named): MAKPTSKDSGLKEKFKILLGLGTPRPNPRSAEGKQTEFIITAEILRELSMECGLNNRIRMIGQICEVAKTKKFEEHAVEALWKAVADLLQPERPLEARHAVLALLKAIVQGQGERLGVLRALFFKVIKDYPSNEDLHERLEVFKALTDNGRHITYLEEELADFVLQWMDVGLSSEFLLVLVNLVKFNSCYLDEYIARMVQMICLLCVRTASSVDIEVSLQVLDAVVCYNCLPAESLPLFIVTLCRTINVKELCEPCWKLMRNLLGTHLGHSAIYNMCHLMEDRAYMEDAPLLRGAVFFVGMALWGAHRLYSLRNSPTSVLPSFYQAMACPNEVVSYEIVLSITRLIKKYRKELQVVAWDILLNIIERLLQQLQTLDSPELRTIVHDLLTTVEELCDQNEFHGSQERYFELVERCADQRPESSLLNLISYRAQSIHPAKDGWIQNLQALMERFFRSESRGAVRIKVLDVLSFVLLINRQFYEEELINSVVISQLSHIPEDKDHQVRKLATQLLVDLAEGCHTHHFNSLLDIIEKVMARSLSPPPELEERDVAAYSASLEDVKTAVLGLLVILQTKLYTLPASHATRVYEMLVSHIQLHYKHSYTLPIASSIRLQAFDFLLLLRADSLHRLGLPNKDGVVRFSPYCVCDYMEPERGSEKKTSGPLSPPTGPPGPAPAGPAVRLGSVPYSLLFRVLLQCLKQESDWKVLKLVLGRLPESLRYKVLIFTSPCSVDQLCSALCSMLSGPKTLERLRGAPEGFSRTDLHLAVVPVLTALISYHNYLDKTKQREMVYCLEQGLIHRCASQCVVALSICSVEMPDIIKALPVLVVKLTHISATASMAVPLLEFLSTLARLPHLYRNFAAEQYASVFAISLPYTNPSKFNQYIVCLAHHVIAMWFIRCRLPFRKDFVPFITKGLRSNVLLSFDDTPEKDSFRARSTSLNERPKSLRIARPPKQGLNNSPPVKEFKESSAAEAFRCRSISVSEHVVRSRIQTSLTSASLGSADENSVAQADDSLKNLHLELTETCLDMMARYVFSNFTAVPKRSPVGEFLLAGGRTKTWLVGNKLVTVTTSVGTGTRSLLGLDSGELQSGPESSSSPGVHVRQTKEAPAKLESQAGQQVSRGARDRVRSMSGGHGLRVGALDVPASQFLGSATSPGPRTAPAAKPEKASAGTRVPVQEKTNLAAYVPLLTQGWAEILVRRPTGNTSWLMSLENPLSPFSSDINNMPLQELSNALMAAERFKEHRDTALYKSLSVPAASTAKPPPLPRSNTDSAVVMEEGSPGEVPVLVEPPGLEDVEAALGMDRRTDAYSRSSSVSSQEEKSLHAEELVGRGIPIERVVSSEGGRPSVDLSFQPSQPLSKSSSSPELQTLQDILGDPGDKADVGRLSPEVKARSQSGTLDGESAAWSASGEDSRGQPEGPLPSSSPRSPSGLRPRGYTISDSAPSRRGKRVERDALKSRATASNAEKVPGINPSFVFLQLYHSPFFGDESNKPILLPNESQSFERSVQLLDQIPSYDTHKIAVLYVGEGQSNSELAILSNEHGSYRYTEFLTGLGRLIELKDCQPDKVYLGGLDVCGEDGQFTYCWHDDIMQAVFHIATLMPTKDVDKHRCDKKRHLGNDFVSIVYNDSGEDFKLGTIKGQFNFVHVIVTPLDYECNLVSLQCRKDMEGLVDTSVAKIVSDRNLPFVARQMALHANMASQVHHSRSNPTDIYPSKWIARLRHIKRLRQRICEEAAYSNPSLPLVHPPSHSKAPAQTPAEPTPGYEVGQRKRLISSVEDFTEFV
# TSC2 L1511H variant (P49815-4, form named): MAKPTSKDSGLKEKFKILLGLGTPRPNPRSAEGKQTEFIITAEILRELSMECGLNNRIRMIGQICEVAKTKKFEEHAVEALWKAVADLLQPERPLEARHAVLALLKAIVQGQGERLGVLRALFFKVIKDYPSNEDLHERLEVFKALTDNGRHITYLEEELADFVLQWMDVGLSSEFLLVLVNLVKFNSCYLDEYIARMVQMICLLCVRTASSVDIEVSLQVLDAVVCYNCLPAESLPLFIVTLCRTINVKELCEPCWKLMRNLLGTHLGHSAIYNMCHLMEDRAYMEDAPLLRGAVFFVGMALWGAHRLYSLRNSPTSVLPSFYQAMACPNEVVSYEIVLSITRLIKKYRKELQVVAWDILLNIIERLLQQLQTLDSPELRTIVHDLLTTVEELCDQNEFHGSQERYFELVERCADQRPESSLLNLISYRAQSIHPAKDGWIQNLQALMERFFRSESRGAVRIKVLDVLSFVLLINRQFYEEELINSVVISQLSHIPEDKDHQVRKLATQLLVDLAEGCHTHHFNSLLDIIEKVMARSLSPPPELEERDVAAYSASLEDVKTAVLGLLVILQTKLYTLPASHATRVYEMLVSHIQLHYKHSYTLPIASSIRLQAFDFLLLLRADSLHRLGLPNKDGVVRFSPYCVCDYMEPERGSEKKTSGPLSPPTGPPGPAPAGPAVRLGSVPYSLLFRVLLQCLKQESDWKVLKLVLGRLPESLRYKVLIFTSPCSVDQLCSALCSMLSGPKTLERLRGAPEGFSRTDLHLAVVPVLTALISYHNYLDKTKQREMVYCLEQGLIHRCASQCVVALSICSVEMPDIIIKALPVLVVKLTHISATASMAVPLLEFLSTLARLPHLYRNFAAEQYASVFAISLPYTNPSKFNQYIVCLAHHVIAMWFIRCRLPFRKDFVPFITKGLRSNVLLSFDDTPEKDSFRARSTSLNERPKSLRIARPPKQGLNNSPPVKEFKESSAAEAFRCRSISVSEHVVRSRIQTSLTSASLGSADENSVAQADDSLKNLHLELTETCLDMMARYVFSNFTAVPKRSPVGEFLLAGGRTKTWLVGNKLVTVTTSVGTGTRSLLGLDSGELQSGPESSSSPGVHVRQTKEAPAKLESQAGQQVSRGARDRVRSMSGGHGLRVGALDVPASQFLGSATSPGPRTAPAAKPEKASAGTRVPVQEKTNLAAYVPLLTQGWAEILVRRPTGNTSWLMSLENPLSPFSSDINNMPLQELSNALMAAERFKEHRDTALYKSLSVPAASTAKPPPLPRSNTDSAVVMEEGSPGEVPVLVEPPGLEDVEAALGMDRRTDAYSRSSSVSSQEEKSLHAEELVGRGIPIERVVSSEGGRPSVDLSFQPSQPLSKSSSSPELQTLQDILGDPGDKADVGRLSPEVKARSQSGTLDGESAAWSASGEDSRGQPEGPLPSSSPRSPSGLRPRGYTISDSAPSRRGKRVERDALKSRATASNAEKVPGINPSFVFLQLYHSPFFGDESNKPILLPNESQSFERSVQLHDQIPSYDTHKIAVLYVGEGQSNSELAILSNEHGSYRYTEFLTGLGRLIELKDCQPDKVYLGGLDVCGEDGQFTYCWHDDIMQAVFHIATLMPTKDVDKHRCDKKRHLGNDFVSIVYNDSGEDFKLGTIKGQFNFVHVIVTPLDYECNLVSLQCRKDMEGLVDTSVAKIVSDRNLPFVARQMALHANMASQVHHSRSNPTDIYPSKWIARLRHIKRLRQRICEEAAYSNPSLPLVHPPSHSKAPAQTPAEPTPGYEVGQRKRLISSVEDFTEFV
# TSC2 R1772C variant (P49815-4, form named): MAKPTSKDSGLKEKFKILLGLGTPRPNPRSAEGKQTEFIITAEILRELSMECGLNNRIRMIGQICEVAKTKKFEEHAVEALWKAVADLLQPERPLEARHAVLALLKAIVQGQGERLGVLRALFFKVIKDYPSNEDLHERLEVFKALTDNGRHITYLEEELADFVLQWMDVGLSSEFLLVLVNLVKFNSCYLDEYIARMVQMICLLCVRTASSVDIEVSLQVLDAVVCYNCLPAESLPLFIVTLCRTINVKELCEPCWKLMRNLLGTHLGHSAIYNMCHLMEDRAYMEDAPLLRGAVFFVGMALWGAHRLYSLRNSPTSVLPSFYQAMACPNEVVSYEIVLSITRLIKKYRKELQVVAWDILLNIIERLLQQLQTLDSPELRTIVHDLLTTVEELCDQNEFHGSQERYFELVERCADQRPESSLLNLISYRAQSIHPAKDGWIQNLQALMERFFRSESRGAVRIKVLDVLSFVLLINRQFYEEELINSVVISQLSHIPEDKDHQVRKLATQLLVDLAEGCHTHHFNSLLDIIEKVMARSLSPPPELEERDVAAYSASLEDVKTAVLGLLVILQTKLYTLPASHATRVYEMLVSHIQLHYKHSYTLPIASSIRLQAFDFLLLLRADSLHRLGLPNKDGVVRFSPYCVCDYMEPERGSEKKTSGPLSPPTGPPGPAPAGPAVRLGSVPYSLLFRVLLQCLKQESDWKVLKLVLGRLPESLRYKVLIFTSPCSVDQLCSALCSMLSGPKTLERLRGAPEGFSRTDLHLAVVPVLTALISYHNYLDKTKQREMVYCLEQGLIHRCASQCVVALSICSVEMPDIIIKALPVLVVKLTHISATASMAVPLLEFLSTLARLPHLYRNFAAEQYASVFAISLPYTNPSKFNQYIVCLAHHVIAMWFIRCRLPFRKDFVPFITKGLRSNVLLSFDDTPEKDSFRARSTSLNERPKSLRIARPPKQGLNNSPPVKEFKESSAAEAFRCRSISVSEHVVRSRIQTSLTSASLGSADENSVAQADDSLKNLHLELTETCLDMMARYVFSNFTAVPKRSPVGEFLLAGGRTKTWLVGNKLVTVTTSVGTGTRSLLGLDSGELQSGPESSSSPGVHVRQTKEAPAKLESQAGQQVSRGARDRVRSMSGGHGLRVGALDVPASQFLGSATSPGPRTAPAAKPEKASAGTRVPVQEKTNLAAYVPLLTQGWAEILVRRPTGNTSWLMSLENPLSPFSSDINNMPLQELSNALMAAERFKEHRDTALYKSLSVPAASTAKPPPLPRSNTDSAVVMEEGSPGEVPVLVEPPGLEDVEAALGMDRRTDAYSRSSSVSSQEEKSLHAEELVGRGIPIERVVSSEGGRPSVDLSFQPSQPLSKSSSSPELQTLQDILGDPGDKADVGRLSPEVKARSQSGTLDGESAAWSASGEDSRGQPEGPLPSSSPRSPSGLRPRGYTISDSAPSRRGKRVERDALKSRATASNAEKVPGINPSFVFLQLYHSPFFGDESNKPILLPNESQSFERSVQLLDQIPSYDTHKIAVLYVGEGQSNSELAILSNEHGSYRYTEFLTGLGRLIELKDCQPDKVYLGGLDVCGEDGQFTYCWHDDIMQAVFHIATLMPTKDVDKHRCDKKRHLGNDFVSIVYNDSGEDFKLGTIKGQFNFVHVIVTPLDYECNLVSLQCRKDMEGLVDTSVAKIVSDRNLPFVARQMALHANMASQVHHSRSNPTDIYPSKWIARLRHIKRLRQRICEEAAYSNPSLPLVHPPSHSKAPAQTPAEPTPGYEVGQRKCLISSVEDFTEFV
# These are yes or no findings as the source states them, for the method shown. In cells and extracts the contact can be indirect. Some binding calls cover weakened binding; strength is not graded here.
# Target: TSC1 (human) (UniProt Q92574)
# Test: co-IP; immunoprecipitation with antibodies specific for exogenous TSC1 from HEK 293 cells over-expressing TSC1 and wild-type TSC2 or a TSC2 variant; TSC2 detected by immunoblotting, TSC2:TSC1 ratio by densitometry
row,Substance,binding
1,TSC2 L1511H variant (from UniProt P49815-4 1-1784),binds
2,TSC2 R1772C variant (from UniProt P49815-4 1-1784),binds
3,wild-type TSC2 (from UniProt P49815-4 1-1784),binds

# The next lines start with the values.
row,binding,Substance
1,binds,TSC2 I820del variant (from UniProt P49815-4 1-1784)
2,binds,TSC2 T993M variant (from UniProt P49815-4 1-1784)
